Test results reported in paper PMC8823290.

Target: BbAtg3 fused to the N-terminal fragment of split YFP (BbATG3-YN) (Beauveria bassiana)
Test: split reporter; split YFP (YN, YC) in the wild-type strain of B. bassiana; transformants propagated in SDB and starved; fluorescence in mycelia by laser confocal microscopy

- binding: binds
B1: BbAtg1 fused to the C-terminal fragment of split YFP (BbATG1-YC) (enzyme, UniProt J4W0G2 1-930)
chain: MTSRQEGASSHGSRRSSRHVGSFIIDREIGKGSFAQVYMGWHKESKAAVAIKSVELERLNKKLKENLYGEIQILKTLRHPHIVALHDCVESSTHINLIMEYCELGDLSLFIKKRDKLITHPATHDMARKYPSAPNSGLHEVVIRHFLKQLSSALEFLRAKNYVHRDVKPQNLLLLPSQAFREERALPIMEASQDSLIPISGLASLPMLKLADFGFARVLPSTSLADTLCGSPLYMAPEILRYERYDAKADLWSVGTVLYEMITGRPPFRARNHVELLRKIEAAEDVIKFPREVSVTPDLKALVRSLLKRSPVERLSFENFFAHHVVTGDILGLVEDDIPKPPKRELETIRQGEALPSSPRVQMARQLSSDPRDTRSSPKSPRSSPRSSTVNSSADAAPRRQSQNAERRLSISSHNSGQGLGIQRPAPPIQSHTAPNHPRAADRSGREPQPSSLRVARQPSDVSLTEEEKAAQDVMFERDYVVVERRHVEVNALADELAANEKLGQNNSSAKSSPLQRRYTQQGSATSTTGAIPTPASRTALVAQGRAGQDRRSSYEKALSASPGSASSAISKAIQDASLRLFGYKVNTMRQKGSSPPLYQPFPAYPTPTSAGLLSDGKGSQVSDEDAKAAQAIEEFATRSDCVYGFAEVKYKQLLPMAPSMDYGLGGVSPDKGTSEEDGLTVDATVALSEEALVLYVKSLTLLARAMDIASLWWSKKTRAESSVVSQTLVQRINAVVQWVRQRFNEVLEKSEVVRLKLTEAQKLLPEDHPSNPAHQGEDSIASSAVGAKQVYLTPGISAEKLMYDRALEMSRAAAIDEVTNENLPGCEISYLTAIRMLEAVLDSDDEATARNISSGKEIAKDATQEGSDLDTEEAAHVRKMITMITGRLNMVRKKQQMIAEANNQAKHVSAMRRLSGDVTPRSVPSYGST

No constants are given. Whether binding was seen depends on the method and setting. Binding seen in cells or lysates may run through a third protein. A result given as binding can be weak or reduced; the word gives no strength. Where a sequence is shown, tags or fusion partners need not be part of it.
